Legend:
Assay type in all cases: cell-based
Details in all cases: Homo sapiens
[1] = tested on: normal colon-derived epithelium monolayers; experiment: cells
[2] = tested on: normal colon-derived epithelium monolayers; experiment: Cytokine-induced barrier injury with tofacitinib pre-treatment, Lucifer Yellow permeability assay
[3] = tested on: normal colon-derived epithelium monolayers; experiment: Cytokine-induced barrier injury with tofacitinib pre-treatment, TEER
Experimental: (A) Transepithelial electrical resistance (TEER). (B) relative TEER value from the same Transwell before treatment after 5 and 24 hours. (C) Permeability and (D) Cell viability of the same Transwell after 24 hours in response to treatments. […] (E) TEER (top), permeability (middle) and cell viability (bottom) dose response curves. EC50 values were calculated by Non-linear regression log(inhibitor) versus response variable slope (four parameters) of three technical replicates.
(A) Transepithelial electrical resistance (TEER). (B) Relative TEER values from the same Transwell before treatment after 5 and 24 hours. (C) Permeability and (D) Cell viability of the same Transwell after 24 hours in response to treatments. […] An unpaired t-test was performed on permeability and cell viability data. A one-way ANOVA (Dunett's multiple comparisons test) was done on normalized TEER, permeability and cell viability data. *P<0.05, **P<0.01, ***P<0.001.
At this point, the culture medium was changed to cCDM until epithelium monolayer barrier integrity further increased (TEER >1000 Ω·cm^2). […] These measurements were normalized to the TEER value of the same Transwell before measurement, to correct for well-to-well TEER variability (FIG. 7B). Paracellular permeability was measured by the Lucifer Yellow (LY) permeability assay after 24 hours (FIG. 7C). Subsequently, monolayer cell viability was measured by the ATP Luminescent Assay, CellTiter-Glo 3D, to monitor for loss of barrier function due to cell death, as opposed to increased paracellular permeability. […] (FIG. 7D).

Q: `C[C@@H]1CCN(C(=O)CC#N)C[C@@H]1N(C)c1ncnc2[nH]ccc12` [tofacitinib] was tested. Which EC50 ([1]; read-out: Cell Viability (EC50 of tofacitinib dose response, FIG. 7E), IFN-γ/TNF-α 2 ng/mL) did it give?
A: Its EC50 is roughly 2820 nM.

Q: And the EC50 ([1]; read-out: Cell Viability (EC50 of tofacitinib dose response, FIG. 7E), IFN-γ/TNF-α/IL-1α 1 ng/mL)?
A: The EC50 was roughly 1040 nM.

Q: And the EC50 ([1]; read-out: Cell Viability (EC50 of tofacitinib dose response, FIG. 7E), IFN-γ/TNF-α/IL-1α 2 ng/mL)?
A: Its EC50 is roughly 2840 nM.

Q: And the EC50 ([2]; read-out: Permeability (EC50 of tofacitinib dose response, FIG. 7E), IFN-γ/TNF-α 2 ng/mL)?
A: The EC50 was 2000 nM.

Q: And the EC50 ([2]; read-out: Permeability (EC50 of tofacitinib dose response, FIG. 7E), IFN-γ/TNF-α/IL-1α 2 ng/mL)?
A: Its EC50 is roughly 1070 nM.

Q: And the EC50 ([3]; read-out: TEER (EC50 of tofacitinib dose response, FIG. 7E), IFN-γ/TNF-α 1 ng/mL)?
A: The EC50 was roughly 1250 nM.

Q: And the EC50 ([3]; read-out: TEER (EC50 of tofacitinib dose response, FIG. 7E), IFN-γ/TNF-α/IL-1α 1 ng/mL)?
A: The EC50 was 1960 nM.

Q: And the EC50 ([3]; read-out: TEER (EC50 of tofacitinib dose response, FIG. 7E), IFN-γ/TNF-α/IL-1α 2 ng/mL)?
A: The EC50 was 6380 nM.

Q: And the EC50 ([3]; read-out: around EC50 tofacitinib concentration, FIG. 7E and Table 6)?
A: Its EC50 is roughly 2000 nM.
